Test results as given in US12685777B2, “Compositions, systems, and methods for modulating a target gene” (The Board of Trustees of the Leland Stanford Junior …, priority 2022, dated 2026).
Not every entry of the source has a single result; some have several. Only these are listed. An entry can have further records. The values listed for one entry differ for a reason that is not stated; some may be repeats, others may stem from another dose, organism or construct than stated.

System: BRD4, Pol II ser 2 phos, H3K27ac occupancy
Assay: ChIP-seq of BRD4, Pol II ser 2 phos, H3K27ac in KARPAS422 cells
Settings: ChIP-seq

CNC(=O)COc1cc2cc(Nc3nc(N4CCC(C(=O)NCCCCCCCNC(=O)C[C@@H]5N=C(c6ccc(Cl)cc6)c6c(sc(C)c6C)-n6c(C)nnc65)CC4)ncc3Cl)cc(OC)c2n(C)c1=O
Loss of BRD4 from enhancers and super enhancers: 10% and ~ 10% and less than 10%
